Laboratory results published in publication PMC4588571.
These are yes or no findings as the source states them, for the method shown. Where a sequence is shown, tags or fusion partners need not be part of it.

Assays:
Assay in all cases: two-hybrid; yeast strain Y187; β-galactosidase colony lift filter assay (lacZ reporter); DmVas constructs as GAL4 DNA-binding domain baits (pAS2-1), Osk or Vls as GAL4 activation domain preys (pACT2)
[1] = biological target: T1, DmVas^460–661, GAL4 DNA-binding domain fusion (Drosophila melanogaster) (UniProt P09052)
T1 sequence: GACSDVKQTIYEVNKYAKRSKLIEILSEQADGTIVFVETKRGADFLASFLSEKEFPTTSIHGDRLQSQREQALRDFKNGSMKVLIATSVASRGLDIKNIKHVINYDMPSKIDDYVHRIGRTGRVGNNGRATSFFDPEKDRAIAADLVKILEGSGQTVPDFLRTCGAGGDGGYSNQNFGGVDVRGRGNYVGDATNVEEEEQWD

[2] = biological target: T2, DmVas^470–661, GAL4 DNA-binding domain fusion (Drosophila melanogaster) (UniProt P09052)
T2 sequence: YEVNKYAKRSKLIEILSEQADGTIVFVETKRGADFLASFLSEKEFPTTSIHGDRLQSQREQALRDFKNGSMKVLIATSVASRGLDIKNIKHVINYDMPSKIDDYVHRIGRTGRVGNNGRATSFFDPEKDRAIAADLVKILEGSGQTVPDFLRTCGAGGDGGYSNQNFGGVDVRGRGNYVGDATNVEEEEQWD

[3] = biological target: T3, Drosophila Vasa, full length (1–661), GAL4 DNA-binding domain fusion (Drosophila melanogaster) (UniProt P09052)
T3 sequence: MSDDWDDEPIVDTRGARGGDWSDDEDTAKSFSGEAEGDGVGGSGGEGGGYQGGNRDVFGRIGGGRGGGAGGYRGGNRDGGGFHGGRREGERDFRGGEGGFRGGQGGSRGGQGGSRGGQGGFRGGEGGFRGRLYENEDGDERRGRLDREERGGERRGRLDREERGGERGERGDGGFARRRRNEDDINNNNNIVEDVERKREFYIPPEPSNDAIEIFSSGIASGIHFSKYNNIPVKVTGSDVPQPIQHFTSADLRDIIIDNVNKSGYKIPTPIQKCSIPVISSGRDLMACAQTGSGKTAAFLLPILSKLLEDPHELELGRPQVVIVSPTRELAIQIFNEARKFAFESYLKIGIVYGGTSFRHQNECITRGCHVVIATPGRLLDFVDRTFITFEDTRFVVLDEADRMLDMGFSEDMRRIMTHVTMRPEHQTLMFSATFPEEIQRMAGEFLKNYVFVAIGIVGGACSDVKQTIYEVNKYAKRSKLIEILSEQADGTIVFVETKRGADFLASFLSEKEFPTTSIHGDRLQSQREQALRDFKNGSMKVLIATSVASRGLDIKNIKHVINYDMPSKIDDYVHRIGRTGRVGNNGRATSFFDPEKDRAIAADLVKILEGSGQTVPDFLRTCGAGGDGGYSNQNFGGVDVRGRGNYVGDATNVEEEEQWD

binding [1]: no binding
binding [2]: no binding
binding [3]: no binding
B1: Valois, full length, GAL4 activation domain fusion (protein, UniProt Q9VIP8 1-367)
chain: MFPQRSSELYRTPVTHQPPPALELAGNLEYPNLNIADLNARLENLSPRLHDCWDSIAINDHNHLALATNRREGRQWWGMLFGYGRDQMHHMSVDSANFKLQAEHTVNIVRYAEDDFLLVALGDTRLQAWSTYSKVRDSQSPYCLFLVGESSAHPTPISQLSVFKADPRTAVSGSADSTLNVWDLSGADMVSTYRSRSSHTDKLTGLATPAASVDKFVTCDRGGCARLWDVRAAAPSSTCLYADASHVLSFTSAAWAAASELQGDNHIYLGDYDGKVHTLDIRVPRKLAETREYFDKGHVAQLLINGPHLAAMSNLPASVKVANVQAGHEFIYTHQDTHSRLTDAVWTDDSTLITIGHGRKMVTHAIK
